No constants are given. Whether binding was seen depends on the method and setting. Some entries that bind do so weakly or less than the wild type.
Target: D1/D2 core of wild-type human NVL (residues 254-857) (human) (UniProt O15381)
Test: cryo-EM micrographs

binding: binds
B1: D1/D2 core of wild-type human NVL (residues 254-857) (domain or fragment, UniProt O15381-1 254-856)
chain: GLEFQISNVKFEDVGGNDMTLKEVCKMLIHMRHPEVYHHLGVVPPRGVLLHGPPGCGKTLLAHAIAGELDLPILKVAAPEIVSGVSGESEQKLRELFEQAVSNAPCIIFIDEIDAITPKREVASKDMERRIVAQLLTCMDDLNNVAATARVLVIGATNRPDSLDPALRRAGRFDREICLGIPDEASRERILQTLCRKLRLPQAFDFCHLAHLTPGFVGADLMALCREAAMCAVNRVLMKLQEQQKKNPEMEDLPSKGVQEERLGTEPTSETQDELQRLLGLLRDQDPLSEEQMQGLCIELNDFIVALSSVQPSAKREGFVTVPNVTWADIGALEDIREELTMAILAPVRNPDQFKALGLVTPAGVLLAGPPGCGKTLLAKAVANESGLNFISVKGPELLNMYVGESERAVRQVFQRAKNSAPCVIFFDEVDALCPRRSDRETGASVRVVNQLLTEMDGLEARQQVFIMAATNRPDIIDPAILRPGRLDKTLFVGLPPPADRLAILKTITKNGTKPPLDADVNLEAIAGDLRCDCYTGADLSALVREASICALRQEMARQKSGNEKGELKVSHKHFEEAFKKVRSSISKKDQIMYERLQESLSR
